Literature values, collected in patent EP1490333B1, “NEW ATORVASTATIN SALTS AND PHARMACEUTICAL COMPOSITIONS CONTAINING THEM” (Richter Gedeon Nyrt., priority 2002, dated 2003).
Structures can show the parent of a compound that is named as a salt.

Conditions: in human; crystalline form compared with amorphous form; hemi-calcium salt; cited from earlier work

CC(C)c1c(C(=O)Nc2ccccc2)c(-c2ccccc2)c(-c2ccc(F)cc2)n1CC[C@@H](O)C[C@@H](O)CC(=O)O [amorphous modification of atorvastatin hemi-calcium salt]
absorption (rate and extent): worse

CC(C)c1c(C(=O)Nc2ccccc2)c(-c2ccccc2)c(-c2ccc(F)cc2)n1CC[C@@H](O)C[C@@H](O)CC(=O)O [crystalline form of atorvastatin hemi-calcium salt]
absorption (rate and extent): significantly better rate and larger extent
